# Some of the results follow. The main result of the screen is listed elsewhere. These columns were measured beside it and carry no call. Most of these compounds were active or inconclusive in the main read-out, so they are no random draw. For some of these results: Words in brackets tell the shape of the fitted curve; partial curves, single points and poor fits give uncertain potencies.
# Assays:
# [1] = Validation of Assay for Modulators of Lamin A Splicing (AID 1459); settings: Lamin A splicing dual RFP/GFP fluorescence reporter, ratio; measured here: GFP channel
# Outline: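 Splicing correction is reported by an EGFP-containing lamin A minigene in stably transfected S3 HeLa cells, while DsRed2 controls for viability and nonspecific signal. Cells are exposed to compounds for 48 hrs before the GFP over RFP ratio is taken.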
# [2] = qHTS Assay for Modulators of Human Peripheral Myelin Protein 22 (PMP22) Expression/Activity (AID 1967); settings: Cell-based PMP22 reporter, dual-color luciferase ratio; measured here: red reporter channel AC50; EF-alpha promoter control reporter in MSC80 mouse Schwann cells
# Outline: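 Quantitative HTS in a mouse Schwann cell line expressing dual click beetle luciferases: Pmp22 promoter (green) and control EF-alpha promoter (red). After 24h treatment, corrected green/red signal ratio gave %Activity relative to untreated cells.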
# [3] = qHTS Validation Assay to Find Inhibitors of Chronic Active B-Cell Receptor Signaling (AID 485345); settings: ABC-DLBCL cells, chronic BCR signaling reporter
# Outline: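 Read-out: ratio of filter-corrected green (IkappaBalpha fusion) to red (native) luciferase signal in doxycycline-induced TMD8 cells after 4 h at 37C. Titration spanned 46 uM–3 nM; Data were normalised to basal cells and 10 uM MG-132 wells.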
# [4] = Nrf2 qHTS screen for inhibitors: Validation (AID 493153); settings: A549 ARE-Fluc reporter, 18-24 h; AC50: CellTiter-Fluor fluorescence read, measured here: cytotoxicity CellTiter-Fluor AC50; viability change: measured here: cytotoxicity max response
# Outline: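 Concentration-response test in A549 ARE_Fluc reporter cells (5% FBS OPTI-MEM), compound exposure 18-24 h at 37°C, 5% CO2. Cell viability measured first by CellTiter-Fluor fluorescence; ARE-driven luciferase luminescence then measured as Nrf2 activity.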
# [5] = qHTS Assay for Lipid Storage Modulators (AID 1519); settings: Drosophila S3 cells, BODIPY lipid droplet/cell ratio, laser cytometry, cells loaded with oleic acid
# Outline: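 Cells seeded at 5,000 per well were treated with compounds over a concentration series and loaded with oleic acid (400 uM, as added). Lipid droplet fluorescence (488 nm excitation, 500-530 nm channel) was read by laser-scanning cytometry and normalized to 20 uM Triacsin C.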
# [6] = Cell-based coincidence reporter assay to measure PMP22 gene transcription in S16 Pmp22-F2sN cells - Confirmatory screen (AID 1508646); settings: S16 Schwann cells Pmp22-F2sN, dual luciferase, 24 h
# Outline: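 Coincidence reporter read as sequential FLuc then NLuc luminescence (Nano-Glo Dual-Luciferase, 10 min each). Engineered S16 Pmp22-F2sN Schwann cells, 500-1,000 per well in DMEM/10% FBS, were exposed to compounds for 24 h, 37C.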
# [7] = measured here: CBR control luciferase (viability counter)
# [8] = measured here: cell count channel max response
# [9] = measured here: lipid channel max response
smiles,measurement,setting,value
O=c1[nH]c2ccccc2c2ccccc12,AC50,[1],"15.8 µM [rising, single point]"
same,AC50,[2],"67.5 µM [falling, partial curve]"
same,AC50,[3]; [7],"5.17 µM [falling, partial curve, poor fit]"
same,viability change,[4],-14.9%
CSc1ccc(C(=O)c2[nH]c(=O)[nH]c2C)cc1,AC50,[1],"3.98 µM [rising, full curve]"
same,max response,[5]; [8],-1.43%
same,AC50,[5]; measured here: cell number channel AC50,"0.00316 µM [falling, full curve, poor fit]"
same,max response,[5]; [9],1.37%
same,AC50,[2],"84.9 µM [falling, single point]"
N#C/C(=C\c1c[nH]c2ccccc12)C(=O)c1ccc(O)c(O)c1,AC50,[1],"11.2 µM [falling, partial curve, poor fit]"
same,max response,[5]; [8],-6.12%
same,max response,[5]; [9],-6.58%
same,AC50,[2],"67.5 µM [falling, partial curve]"
same,AC50,[3]; measured here: CBG/CBR ratio read-out,"5.8 µM [falling, partial curve]"
same,AC50,[3]; [7],"5.17 µM [falling, full curve]"
O=C(CCS(=O)(=O)c1cc(Br)cc2c1N(C(=O)C1CC1)CC2)N1CCN(c2cccc(C(F)(F)F)c2)CC1,AC50,[6]; measured here: FLuc reporter channel,"30.6 µM [falling, single point]"
Nc1ncnc2c1nc(Br)n2C1O[C@H]2COP(=O)(O)O[C@@H]2C1O (some centres undefined),AC50,[1],"4.47 µM [rising, partial curve]"
same,AC50,[2],"42.6 µM [falling, partial curve, poor fit]"
CCOC(=O)C1CCN(C(=O)c2ccc3c(=O)n4nc(Nc5ccccc5)sc4nc3c2)CC1,AC50,[6]; measured here: NLuc reporter channel,"3.06 µM [rising, partial curve, poor fit]"

# Two entries from above, with tabs:
smiles	measurement	setting	value
O=c1[nH]c2ccccc2c2ccccc12	AC50	[3]; [7]	5.17 µM [falling, partial curve, poor fit]
same	viability change	[4]	-14.9%

# Source: PubChem BioAssay (NCATS)
